Assay results from PubChem BioAssay AID493014 (National Center for Advancing Translational Sciences (NCATS), 2011).
About 170 (0.05%) of roughly 340,000 compounds were called active. Inconclusive results, whose numbers are uncertain, are shown with a selection of clear calls. Calls come from the whole dose curve; as a rule, active = well fitted inhibition curve with a large enough effect in the signal ratio, with a control signal flat (not every such curve was filed as active); inconclusive = small, poorly fitted or top-dose-only effect, or effect the other way, or a change in a side signal; inactive = flat fitted curve, though single readings scatter; the % refers to the signal ratio. Potencies beside an inconclusive call are fits to weak or partial responses and may not hold up.
Potency is the fitted concentration of half-maximal effect.

Experiment: qHTS Assay to Find Inhibitors of Chronic Active B-Cell Receptor Signaling;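 for activity change, negative = inhibition: plate controls were basal doxycycline-induced cells for no effect and cells given 10 µM MG132 for full effect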
Conditions: ABC-DLBCL IkBa-CBG/CBR reporter, luminescence ratio (green luciferase fused to IkBa over red control in TMD8 lymphoma cells), 4 h; activity change, negative = inhibition: at 46.1 µM (top of the series)
Procedure, shortened: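 Doxycycline induced both beetle luciferases in TMD8 lymphoma cells; IKK-driven degradation limits the IkappaBalpha-fused green signal, while red luminescence normalises for cell number and nonspecific effects. Compounds tested up to 46 uM, 4 hrs.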
In the case of `CCOC(=O)c1c(NC(=O)C2CCCO2)sc(C(N)=O)c1C` (stereo not given), the “activity change, negative = inhibition” value was inactive: -0.452%. In the case of `CC[C@@]12C(=O)N(c3cccc(Cl)c3)C(=O)N1[C@H](c1cccc(C)c1)[C@@H]1C(=O)N(Cc3ccccc3)C(=O)[C@@H]12`, the activity change, negative = inhibition was inconclusive: 4.65%. With `Cn1c(C(=O)NCc2ccccn2)cc2c(=O)n(C)c3ccccc3c21` the activity change, negative = inhibition was inconclusive: 10.4%. In the case of `CCOCc1nnc(NC(=O)CSc2ccc(C)cc2)s1`, the Potency was inconclusive: 0.146 µM [falling, full curve, poor fit]. With `COc1ccc(Cc2nc3ccc(C(=O)NCCc4ccccn4)cc3o2)cc1OC` the Potency was inconclusive: 22.4 µM [falling, partial curve, poor fit]. For `CCOc1cccc(OCCOCCn2cnc3ccccc3c2=O)c1`, the activity change, negative = inhibition was inconclusive: -16.6%. With `O=C(CSc1nc2ccccc2s1)Nc1ccc(N2CCOCC2)c(Cl)c1` the activity change, negative = inhibition was inconclusive: 25.9%. In the case of `CC(=O)c1c(C)[nH]c(C(=O)NCCc2ccccc2)c1C`, the Potency was inconclusive: 35.5 µM [falling, partial curve, poor fit]. With `Cc1cc2n(n1)SC(Nc1ccccc1)N2` (stereo not given) the Potency was inconclusive: 35.5 µM [falling, single point]. In the case of `Cc1nc(Cl)cc(N/N=C/c2ccc(O)cc2)n1`, the Potency was inconclusive: 10 µM [falling, partial curve, poor fit]. With `Cc1ccccc1-c1nnc(-c2ccccc2)o1` the Potency was inconclusive: 20.6 µM [falling, single point]. With `O=C(CC1NCCc2ccccc21)Nc1ccc(Cl)cc1` (stereo not given) the Potency was inconclusive: 11.2 µM [falling, partial curve]. In the case of `CSc1cccc(NC(=S)N(C(C)C)C(C)c2ccccn2)c1` (stereo not given), the activity change, negative = inhibition was inconclusive: 11.7%. For `COc1ccccc1Cn1c(=S)[nH]c2cc(C(=O)NCc3cccnc3)ccc2c1=O`, the Potency was inconclusive: 35.5 µM [falling, partial curve, poor fit]. With `COc1cc(OC)cc(-c2c(-c3cccs3)c3cc(-c4ccc(OC)c(F)c4)ccc3n2C)c1` the activity change, negative = inhibition was inconclusive: 0.539%. In the case of `O=C(CSc1nc2scc(-c3ccccc3)c2c(=O)[nH]1)NCCc1ccccc1`, the activity change, negative = inhibition was inconclusive: 5.72%. With `CCN(CC)CCNC(=O)c1cc2c(=O)n(C)c3ccccc3c2n1C` the activity change, negative = inhibition was inconclusive: -13.8%. For `O=C(O)c1ccc(S(=O)(=O)NCC2CCCCC2)cc1`, the “activity change, negative = inhibition” value was inactive: 0.498%. For `N#Cc1nc(-c2ccccc2)oc1N1CCN(C(=O)c2ccco2)CC1`, the activity change, negative = inhibition was inconclusive: 5.96%. In the case of `COc1cc(OC)cc(C(=O)NNC(=O)c2ccc3ccccc3n2)c1`, the Potency was inconclusive: 18.4 µM [falling, partial curve]. With `COc1cc2c(cc1OC)CN(Cc1ccccc1)CC2` the “activity change, negative = inhibition” value was inactive: -0.808%. For `COc1ccc(N(CC(=O)NCc2ccc(Cl)cc2)S(=O)(=O)c2ccccc2[N+](=O)[O-])c(OC)c1`, the Potency was inconclusive: 12.6 µM [rising, partial curve, poor fit]. With `O=C(COC(=O)CCS(=O)(=O)c1ccc(Cl)cc1)Nc1ncc(Cl)cc1Cl` the activity change, negative = inhibition was inconclusive: 0.293%. With `COc1cc(/C=C/c2c([N+](=O)[O-])c(=O)n(C)c(=O)n2C)cc(OC)c1OC` the “activity change, negative = inhibition” value was inactive: -7.9%. In the case of `CCOC(=O)CCCSc1nc2sc3c(c2c(=O)[nH]1)CCC3`, the Potency was inconclusive: 0.92 µM [rising, full curve]. With `COc1ccc(-c2nc(-c3ccc(Br)o3)no2)cc1OC` the activity change, negative = inhibition was inconclusive: 12%. For `O=C(CSCc1ccco1)c1cccs1`, the activity change, negative = inhibition was inconclusive: 5.12%. In the case of `COc1cccc(NC(=O)c2oc3ccccc3c2NC(=O)C2CC2)c1`, the activity change, negative = inhibition was inconclusive: 10.2%. For `CCCCCCC(=O)Nc1ccc(Br)cn1`, the activity change, negative = inhibition was inconclusive: 11.6%. For `Cc1cc(-n2c(C)cc(C(=O)CSc3ncnc4ccccc34)c2C)no1`, the activity change, negative = inhibition was inconclusive: -22.8%. In the case of `COc1ccc(Br)cc1-c1noc(-c2ccccc2)n1`, the activity change, negative = inhibition was inconclusive: -0.0979%. For `CCN(CCNC(=O)C1CCN(Cc2nc(-c3cccc(Cl)c3)oc2C)CC1)c1ccccc1`, the activity change, negative = inhibition was inconclusive: -5.46%. With `Cc1ccc(NC(=O)c2sc(Cl)nc2C)c(C)c1` the “activity change, negative = inhibition” value was inactive: 1.11%. For `O=C(CSc1ncccc1-c1nc2ccccc2[nH]1)N1CCCCC1`, the Potency was inconclusive: 2.51 µM [falling, full curve, poor fit]. For `CCSS(=O)(=O)c1cccc2cccnc12`, the Potency was inconclusive: 14.1 µM [falling, single point]. In the case of `O=C(N/C=C/c1ccco1)OCc1ccccc1`, the activity change, negative = inhibition was inconclusive: 1.31%. With `CCCSc1nnc2[nH]c(=O)cc(C)n12` the activity change, negative = inhibition was inconclusive: 10.6%. With `CCCCCCCCNC(=O)c1cnsn1` the activity change, negative = inhibition was inconclusive: 8.51%. With `COc1cccc(/C=C2\SC(=O)N(CC(=O)NC3CCS(=O)(=O)C3)C2=O)c1` (stereo not given) the Potency was inconclusive: 31.6 µM [falling, single point]. For `CN(C)CCCN(C(=O)c1ccc(S(=O)(=O)N(C)C2CCCCC2)cc1)c1nc2ccc(F)cc2s1`, the “activity change, negative = inhibition” value was inactive: 4.43%. In the case of `COc1ccc(Cl)cc1-c1n[nH]c(=S)o1`, the “activity change, negative = inhibition” value was inactive: -2.23%. With `C(=N\Nc1ncnc2ccccc12)/c1ccccc1` the Potency was inconclusive: 35.5 µM [rising, single point]. In the case of `COc1c([N+](=O)[O-])c(=O)oc2ccccc12`, the Potency was inconclusive: 29.1 µM [falling, single point]. In the case of `CCOC(=O)c1ccc(N=c2sc(C(=O)OC)cc(=O)n2Cc2ccco2)cc1`, the activity change, negative = inhibition was inconclusive: -9.57%. In the case of `c1cncc(-c2nnc(-c3cccs3)o2)c1`, the “activity change, negative = inhibition” value was inactive: -1.91%. In the case of `O=C1c2ccccc2C(=O)N1CCCc1nc2ccccc2c(=O)n1CCCn1ccnc1`, the activity change, negative = inhibition was inconclusive: 3.44%. With `O=C(Nc1ccncc1)c1ccc(F)cc1` the Potency was inconclusive: 14.6 µM [falling, partial curve, poor fit]. With `O=C(CSc1nnc(-c2cccs2)n1-c1ccccc1)N1CCOCC1` the activity change, negative = inhibition was inconclusive: 1.38%. With `CC(=O)N1C(=O)c2cccc3cccc(c23)C(=O)N1C(C)=O` the activity change, negative = inhibition was inconclusive: 8.77%. In the case of `CCC1(C)Cc2ccccc2C(=S)N1` (stereo not given), the Potency was inconclusive: 22.4 µM [falling, partial curve, poor fit]. With `C=CCCCCCCCCC(=O)Nc1ncccn1` the activity change, negative = inhibition was inconclusive: 8.81%. In the case of `Cc1ccc(C(=O)N2CCN(Cc3nc4sc5c(c4c(=O)[nH]3)CCCC5)CC2)cc1`, the “activity change, negative = inhibition” value was inactive: 2.41%. With `COc1ccc(C(CNC(=O)CN(C)S(=O)(=O)c2ccc(C)cc2)N2CCCC2)cc1` (stereo not given) the activity change, negative = inhibition was inconclusive: -0.767%. For `O=C(CN1C(=O)NC2(CCc3ccccc32)C1=O)NCc1cccc(C(F)(F)F)c1` (stereo not given), the Potency was inconclusive: 25.9 µM [falling, partial curve, poor fit]. For `c1ccc(-n2cnc3cc(NCc4ccccn4)ccc32)cc1`, the Potency was inconclusive: 29.1 µM [falling, single point]. For `O=C(c1cnc2n(c1=O)CCS2)N1CCN(c2ccccc2F)CC1`, the activity change, negative = inhibition was inconclusive: 10.6%. For `O=C(COC(=O)c1ccc(O)cc1O)N=c1sccn1Cc1ccccc1Cl`, the activity change, negative = inhibition was inconclusive: -26.9%. In the case of `COc1ccc2cc(C(=O)N3CCN(Cc4ccc5c(c4)OCO5)CC3)[nH]c2c1`, the Potency was inconclusive: 7.08 µM [falling, partial curve, poor fit]. With `CCN(Cc1ccccc1)C(=O)c1nn(-c2ccc(OC)cc2)c(=O)c2c1c1ccccc1n2C` the Potency was inconclusive: 3.55 µM [falling, single point]. For `O=C(N/N=C/c1cn(-c2cccs2)nc1-c1ccccc1)c1ccccc1Br`, the activity change, negative = inhibition was inconclusive: 6.34%. In the case of `O=C(c1cccc(S(=O)(=O)N2CCOCC2)c1)N1CCCc2ccccc21`, the “activity change, negative = inhibition” value was inactive: 10.8%. In the case of `Cc1c(CC(=O)N[C@@H](CCCNC(N)=O)C(=O)O)c(=O)oc2cc3oc4c(c3cc12)CCCC4`, the “activity change, negative = inhibition” value was inactive: 1.12%. With `C=CCN(C(=O)C1CSC2(C)CCC(=O)N12)c1nc(-c2ccccc2)cs1` (stereo not given) the Potency was inconclusive: 2.91 µM [rising, full curve]. For `COc1cc2sc3cc(NCc4ccc(C)o4)ccc3c(=O)c2cc1OC`, the “activity change, negative = inhibition” value was inactive: -2.17%. In the case of `CC1CCc2c(C(=O)Nc3ccc(OC(F)(F)F)cc3)csc2C1` (stereo not given), the activity change, negative = inhibition was inconclusive: 12.9%. In the case of `CSc1nnc(-c2ccccc2N=Cc2c(C)[nH]n(-c3ccc4ccccc4c3)c2=O)c(=O)[nH]1`, the Potency was inconclusive: 3.98 µM [falling, single point]. In the case of `CCCCN(CC)Cc1ccc(CNC(=S)Nc2c(C)cc(C)cc2C)o1`, the activity change, negative = inhibition was inconclusive: -14.8%. In the case of `O=C(O)C1CC=CCC1C(=O)NC12CC3CC(CC(C3)C1)C2` (stereo not given), the activity change, negative = inhibition was inconclusive: -7.29%. For `CCN(C(=O)CSc1ncccc1C(=O)Oc1cccc([N+](=O)[O-])c1)c1cccc(C)c1`, the “activity change, negative = inhibition” value was inactive: -5.93%. In the case of `O=[N+]([O-])c1ccc(NCCCNS(=O)(=O)c2ccc(Cl)cc2)c(Cl)c1`, the Potency was inconclusive: 17.8 µM [falling, partial curve, poor fit]. For `Cn1c(O)c(N=NC(=O)C2COc3ccccc3O2)c2ccccc21` (stereo not given), the “activity change, negative = inhibition” value was inactive: -23.3%. For `O=C(O)c1ccc2cccnc2c1O`, the activity change, negative = inhibition was inconclusive: -1.5%. In the case of `COc1ccccc1C(=O)C1CCCN(Cc2cccc3nccnc23)C1` (stereo not given), the “activity change, negative = inhibition” value was inactive: -13.4%. For `O=C(NC1CCCC1)c1cc(-c2ccc(Cl)cc2)on1`, the Potency was inconclusive: 3.98 µM [falling, full curve]. In the case of `COc1ccc(CC(C)N2CCN(Cc3ccccc3)CC2)c(OC)c1` (stereo not given), the “activity change, negative = inhibition” value was inactive: -2.63%. For `CCn1cnc2c(Nc3cccc(Cl)c3)nc(C#N)nc21`, the activity change, negative = inhibition was inconclusive: 8.37%. For `Cc1ccc(NC(=O)NC2CCCCCCC2)cc1C`, the “activity change, negative = inhibition” value was inactive: 0.196%. For `COc1ccc(OC(=O)Cc2cccc3ccccc23)cc1`, the activity change, negative = inhibition was inconclusive: 8.22%. For `O=C(N/N=C/c1ccc([N+](=O)[O-])o1)C1CCCC1`, the activity change, negative = inhibition was inconclusive: 4%. With `O=C(O)CCCCCN1C(=O)/C(=C/c2ccncc2)SC1=S` the Potency was inconclusive: 0.58 µM [falling, full curve, poor fit].
